Where a name gives a salt, the structure may show the parent alone.

This data set is described as follows: pH of BB10 medium upon treatment. In kind it is physicochemical.

For `Cl` [HCl], the “decrease of BB10 pH” value (10 mM HCl) is reported as “more than 1.5 pH units”.
On to `CC(O)C(=O)O` (stereo not drawn) [lactate], for which, where the note is “10 mM vs 0.1 mM sodium L-lactate in BB10”, the “pH difference between highest and lowest amount” value is ~ 0.01. Moreover, under “any concentration of sodium L-lactate”, the “decrease of BB10 pH” value was “less than 0.05 pH units”.

For the origin of these results see article PMC5658362 (Scientific Reports, 2017).
